Drawing on US20120171226A1, this text covers binding for one molecule.

The chains behind the UniProt entries cited, without tags or fusion partners. Residues count along the entry.
UniProt Q6UVK1, residues 30-2322: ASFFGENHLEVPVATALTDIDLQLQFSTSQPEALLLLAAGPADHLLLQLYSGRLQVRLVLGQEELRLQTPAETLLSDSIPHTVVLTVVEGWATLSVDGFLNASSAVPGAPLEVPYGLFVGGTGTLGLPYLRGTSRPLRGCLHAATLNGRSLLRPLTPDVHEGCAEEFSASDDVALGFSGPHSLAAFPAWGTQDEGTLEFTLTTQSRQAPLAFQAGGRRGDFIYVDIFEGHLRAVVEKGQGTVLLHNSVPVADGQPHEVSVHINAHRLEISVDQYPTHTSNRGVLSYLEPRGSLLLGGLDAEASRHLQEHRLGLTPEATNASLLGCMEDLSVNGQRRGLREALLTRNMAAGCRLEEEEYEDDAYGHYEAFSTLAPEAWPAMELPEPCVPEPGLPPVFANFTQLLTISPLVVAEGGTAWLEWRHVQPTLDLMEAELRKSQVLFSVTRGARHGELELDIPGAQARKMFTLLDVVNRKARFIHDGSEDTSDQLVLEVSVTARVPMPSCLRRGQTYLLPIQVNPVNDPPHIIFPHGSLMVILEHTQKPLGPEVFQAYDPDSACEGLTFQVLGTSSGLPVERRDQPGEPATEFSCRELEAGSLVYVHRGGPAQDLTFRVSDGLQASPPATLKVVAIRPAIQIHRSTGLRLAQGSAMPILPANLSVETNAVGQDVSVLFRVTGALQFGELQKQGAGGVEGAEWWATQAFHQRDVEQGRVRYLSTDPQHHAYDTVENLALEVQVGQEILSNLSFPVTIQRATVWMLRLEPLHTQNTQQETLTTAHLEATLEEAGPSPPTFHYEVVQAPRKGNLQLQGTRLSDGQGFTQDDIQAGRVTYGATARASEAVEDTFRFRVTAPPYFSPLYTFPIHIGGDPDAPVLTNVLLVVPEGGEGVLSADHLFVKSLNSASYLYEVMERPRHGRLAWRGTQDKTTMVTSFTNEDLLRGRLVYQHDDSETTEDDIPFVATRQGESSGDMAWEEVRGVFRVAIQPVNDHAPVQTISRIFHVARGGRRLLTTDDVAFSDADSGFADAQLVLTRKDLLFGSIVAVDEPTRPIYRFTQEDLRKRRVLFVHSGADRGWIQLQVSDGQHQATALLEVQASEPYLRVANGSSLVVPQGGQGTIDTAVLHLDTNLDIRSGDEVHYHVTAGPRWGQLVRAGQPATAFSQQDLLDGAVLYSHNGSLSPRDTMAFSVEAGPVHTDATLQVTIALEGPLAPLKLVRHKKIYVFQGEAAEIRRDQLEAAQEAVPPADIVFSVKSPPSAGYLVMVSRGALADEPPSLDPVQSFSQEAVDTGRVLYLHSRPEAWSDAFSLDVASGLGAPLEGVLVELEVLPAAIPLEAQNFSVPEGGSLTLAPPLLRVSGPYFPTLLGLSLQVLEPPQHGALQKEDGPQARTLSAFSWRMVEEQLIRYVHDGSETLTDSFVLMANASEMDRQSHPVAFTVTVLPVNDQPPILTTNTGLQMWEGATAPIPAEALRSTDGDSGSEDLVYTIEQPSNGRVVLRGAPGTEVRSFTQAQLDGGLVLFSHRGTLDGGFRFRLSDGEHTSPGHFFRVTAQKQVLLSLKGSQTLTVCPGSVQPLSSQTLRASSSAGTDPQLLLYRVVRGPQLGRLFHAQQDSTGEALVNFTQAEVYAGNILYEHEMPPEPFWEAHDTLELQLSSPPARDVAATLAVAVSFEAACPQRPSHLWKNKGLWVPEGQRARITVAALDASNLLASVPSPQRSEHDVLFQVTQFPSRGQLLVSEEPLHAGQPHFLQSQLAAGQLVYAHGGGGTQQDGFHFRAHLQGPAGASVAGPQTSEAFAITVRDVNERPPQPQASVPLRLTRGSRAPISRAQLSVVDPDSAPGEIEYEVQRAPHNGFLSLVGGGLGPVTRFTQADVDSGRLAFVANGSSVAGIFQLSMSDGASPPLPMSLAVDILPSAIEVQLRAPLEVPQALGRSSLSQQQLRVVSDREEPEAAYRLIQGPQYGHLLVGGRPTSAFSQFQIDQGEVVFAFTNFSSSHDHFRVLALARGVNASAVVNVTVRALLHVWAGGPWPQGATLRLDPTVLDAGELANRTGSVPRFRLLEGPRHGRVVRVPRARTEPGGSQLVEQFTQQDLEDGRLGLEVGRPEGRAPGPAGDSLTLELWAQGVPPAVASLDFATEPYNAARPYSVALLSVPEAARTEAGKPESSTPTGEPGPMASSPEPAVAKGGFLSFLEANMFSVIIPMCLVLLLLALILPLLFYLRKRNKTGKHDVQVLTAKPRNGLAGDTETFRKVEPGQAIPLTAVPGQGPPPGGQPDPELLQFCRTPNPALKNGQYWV

These are yes or no findings as the source states them, for the method shown. Some results given as binding are weak or reduced against the parent protein; the word gives no strength.

The assay deals with high molecular weight melanoma associated antigen (HMW-MAA) (human) (UniProt Q6UVK1). Put plainly: competition binding on Minor melanoma cells; competitor biotinylated murine IND-2 IgG.

B1: chimeric IND-2 Fab (Fab, V domains shown)
VH: QIQLVQSGPELKKPGETVKISCKASGYTFTDYSMHWVKKTPGKGLKWLGWINTATGEPTYADDFKGRFAISLETSARTVYLQINNLRNEDTATYFCFSYYDYWGQGTTLTVSS
VL: DILLTQSPAILSVTPGETVSLSCRASQTIYKNLHWYQQKSHRSPRLLIKYGSDSISGIPSRFTGSGSGTDYTLNINSVKPEDEGIYYCLQGYSTPWTFGGGTKLEIKR
Regarding B1, the binding result was “binds”.
